Measurements published in PubChem BioAssay AID624291 (National Center for Advancing Translational Sciences (NCATS), 2012).
The campaign covered roughly 350,000 compounds. About 220 (0.063%) were called active. Inconclusive results, whose numbers are uncertain, are shown with a selection of clear calls. Calls follow the shape of the dose curve; as a rule, active = well fitted activation curve with a large enough effect; inconclusive = small, poorly fitted or top-dose-only effect; inactive = no such curve, though single readings can be large or run the other way. Where the call is inconclusive, the potency comes from a doubtful curve fit.
Potency is read from the fitted curve at half-maximal effect.

Experiment: qHTS for Activators of Integrin-Mediated Alleviation for Muscular Dystrophy; also: nearly all actives have a fitted effect of over 60% in size;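 as to activation: 100% = response of the positive control SU9516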
Conditions: alpha7betagal myoblasts, beta-gal FDG fluorescence, 48 h; activation: at 38.3 µM (top of the series)
How it was run: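 Alpha7betagal+/- myoblasts (passage 13) were plated 16-24 hr, then exposed to compounds (1:260 dilution of DMSO stock) for 48 hours at 37C. After MPER lysis, β-galactosidase reporter activity was read as FDG fluorescence (ex 480/em 540) after 30 minutes.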
In the case of `COc1ccc(N(C(=O)c2snc(C(N)=O)c2N)C(C(=O)NC2CCCC2)c2ccc(OC)c(OC)c2)cc1` (centres undefined), the “activation” value is reported as inactive: 7.39%.
For `CCCN1Cc2cccc(C(=O)NCCc3ccccc3)c2C1=O`, the Potency was inconclusive: 14.1 µM [activator, single point].
For `CCOC(=O)c1c(C)c(C(=O)N2CCN(c3ccc(F)cc3)CC2)c(C)n1C`, the Potency was inconclusive: 0.501 µM [activator, full curve, poor fit].
In the case of `O=C(NNc1nc2cc3c(cc2s1)OCCO3)c1ccc(F)cc1`, the Potency is reported as inconclusive: 1.26 µM [activator, single point].
In the case of `Nc1ncc2c(n1)-c1cc(Cl)ccc1SC2`, the Potency is reported as inconclusive: 28.2 µM [activator, single point].
In the case of `CCCCn1c(SCC(=O)N2CCCC2)nc2cc(S(N)(=O)=O)ccc21`, the Potency is reported as inconclusive: 28.2 µM [activator, single point].
For `Cc1cc(C(F)F)n2ncc(C(=O)NCc3ccccc3F)c2n1`, the Potency was inconclusive: 11.2 µM [activator, partial curve, poor fit].
With `CCC1Sc2ccc(S(=O)(=O)CCC(=O)Nc3ccc(NC(C)=O)cc3)cc2NC1=O` (centres undefined) the Potency was inconclusive: 0.447 µM [activator, full curve, poor fit].
In the case of `N#Cc1cnn(-c2nc(SCc3ccccc3)nc3sc4c(c23)CCCC4)c1N`, the Potency is reported as inconclusive: 31.6 µM [activator, single point].
For `CC(C)c1ccc(Nc2nc(Cl)nc(Cl)n2)cc1`, the Potency was inconclusive: 28.2 µM [activator, single point].
For `COc1cc2[nH]c(C(=O)N3CCN(c4ccc(F)cc4)CC3)cc2c(OC)c1OC`, the Potency was inconclusive: 3.98 µM [activator, single point].
With `CS(=O)(=O)N1CCC(C(=O)Nc2cccc(F)c2)CC1` the Potency was inconclusive: 0.501 µM [activator, full curve, poor fit].
For `CCCCN(C(=O)c1cccc(-c2ccc(OC(C)=O)cc2)c1)c1c(N)n(CCC)c(=O)[nH]c1=O`, the “activation” value was inactive: 31%.
With `COc1cccc(-c2nc(SCC(=O)Nc3nc(-c4ccccc4)c(C)s3)[nH]c(=O)c2C#N)c1` the Potency was inconclusive: 1 µM [activator, full curve, poor fit].
In the case of `COC(=O)c1c(C)c(OC(=O)c2c(C)cc(O)c(C=O)c2O)cc(C)c1O`, the Potency is reported as inconclusive: 2.51 µM [activator, full curve].
In the case of `CCOC(=O)NC1Cc2ccccc2C1Sc1ccccn1` (centres undefined), the “activation” value is reported as inactive: 8.73%.
With `N#Cc1c(-c2ccncc2)cc(-c2ccc(F)cc2)nc1N` the Potency was inconclusive: 14.1 µM [activator, single point].
In the case of `Cc1ccc(/C=N/Nc2ccc(F)cc2F)s1`, the Potency is reported as inconclusive: 28.2 µM [activator, single point].
For `CCOC(=O)N1CCc2c(sc(NC(=O)CCS(=O)(=O)c3ccccc3)c2C(N)=O)C1`, the “activation” value was inactive: -17.1%.
In the case of `Cc1onc(-c2ccccc2)c1C(=O)Nc1nnc(C(C)C)s1`, the “activation” value is reported as inactive: -4.47%.
For `Cc1ccc(-n2ncc3c(=O)n(-c4cccc(C)c4)c(=O)[nH]c32)cc1`, the “activation” value was inactive: 10.5%.
With `CC1CCCC(NC(=O)COC(=O)c2cc(=O)[nH]c3ccccc23)C1C` (centres undefined) the Potency was inconclusive: 28.2 µM [activator, single point].
In the case of `COc1ccc(N(C)S(=O)(=O)c2cccc(C(=O)OCC(=O)Nc3sc4c(c3C#N)CCCCC4)c2)cc1`, the Potency is reported as inconclusive: 5.62 µM [activator, partial curve, poor fit].
With `COC(=O)c1nn(-c2ccc(C)cc2)ccc1=O` the Potency was inconclusive: 5.01 µM [activator, single point].
With `COc1cc(C)c(NC(=O)COc2ccc3c(c2)OCO3)cc1C` the Potency was inconclusive: 2.82 µM [activator, full curve].
In the case of `Cc1ccc(NC(=O)C(=O)NCCCN2CCOCC2)c(C)c1`, the Potency is reported as inconclusive: 3.16 µM [activator, single point].
In the case of `O=C(CN(Cc1ccccc1)C(=O)CNS(=O)(=O)c1ccccc1)NCc1ccco1`, the Potency is reported as inconclusive: 28.2 µM [activator, single point].
With `Cc1ccc(SCCSc2nc(N)cc(=O)[nH]2)cc1` the Potency was inconclusive: 3.16 µM [activator, single point].
For `Cc1ccc(CNC(=O)c2cc(C)nn2-c2ccccc2)cc1`, the Potency was inconclusive: 28.2 µM [activator, single point].
With `CC(=O)Nc1nc(-c2ccc3c(c2)CCN3C(=O)C2CC2)c(C)s1` the activation was inconclusive: 3.17% [activator].
In the case of `Cc1cc(C)cc(N2CC(C(=O)NC3CCCCC3)CC2=O)c1` (centres undefined), the “activation” value is reported as inactive: -21.7%.
For `O=[N+]([O-])c1ccc(N2CCN(c3ccc([N+](=O)[O-])cc3CO)CC2)c(CO)c1`, the “activation” value was inactive: -41.2%.
For `Cc1ccc(NC(=O)CC2COc3ccccc3O2)cc1` (centres undefined), the Potency was inconclusive: 10 µM [activator, partial curve].
With `COc1cccc(CC2(CO)CCCN(Cc3cn[nH]c3C3CCCCC3)C2)c1` (centres undefined) the Potency was inconclusive: 1 µM [activator, partial curve, poor fit].
In the case of `COc1ccc(C(=O)NC(=S)Nc2ccc(S(=O)(=O)Nc3cc(OC)ncn3)cc2)cc1`, the “activation” value is reported as inactive: 13.7%.
With `COc1ccc(-c2cc(C(=O)Nc3nc4c(C)cccc4s3)c3ccccc3n2)cc1OC` the “activation” value was inactive: 8.4%.
In the case of `CSc1nc(N)nc(SCC(=O)Nc2cccc(F)c2)c1C#N`, the “activation” value is reported as inactive: -29.1%.
For `COc1ccc(-c2cc(C(=O)Nc3cccc(O)c3)no2)cc1`, the Potency was inconclusive: 2.24 µM [activator, partial curve, poor fit].
In the case of `CCCC(=O)NC(=S)Nc1cccc(NC(=O)c2ccccc2)c1`, the “activation” value is reported as inactive: -9.28%.
With `Cc1cc(Br)ccc1OCc1nnc(-c2ccccc2)o1` the Potency was inconclusive: 8.91 µM [activator, single point].
In the case of `Cc1cc(C(=O)CSc2nc3ccccc3[nH]2)c(C)n1C`, the “activation” value is reported as inactive: 11.1%.
For `COc1ccc(N2CCN(C(=O)CCC(=O)NNc3nc4ccccc4c4nc(C)nn34)CC2)cc1`, the Potency was inconclusive: 0.891 µM [activator, partial curve, poor fit].
With `CC(C)NS(=O)(=O)c1ccc(OCC(=O)NC(C)c2ccccc2)cc1` (centres undefined) the Potency was inconclusive: 1.58 µM [activator, full curve, poor fit].
With `COc1ccc(NC(=O)/C=C/c2c(Cl)nc3ccccn23)cc1` the Potency was inconclusive: 2.51 µM [activator, single point].
For `O=C(NC1(C(F)(F)F)NC(=O)N(C2CCCCC2)C1=O)C1CC1` (centres undefined), the Potency was inconclusive: 0.501 µM [activator, full curve, poor fit].
For `NC(=S)Nc1ncc(C(F)(F)F)cc1Cl`, the Potency was inconclusive: 22.4 µM [activator, single point].
In the case of `CC1=C(C(=O)N2CCCC(C(=O)c3cccc4ccccc34)C2)OCCO1` (centres undefined), the “activation” value is reported as inactive: -20.8%.
With `O=C(Nc1ccc(-c2csnn2)cc1)C(Cl)(Cl)Cl` the Potency was inconclusive: 5.01 µM [activator, single point].
In the case of `Cc1[nH]n(C(N)=S)c(=O)c1N=Nc1cccc(C(F)(F)F)c1`, the Potency is reported as inconclusive: 14.1 µM [activator, single point].
For `CC(C)CNC(=S)NNC(=O)c1csc2c1CCC(C)C2` (centres undefined), the activation was inactive: -12.1% [at 7.66 µM].
With `Cc1nn(C(=O)c2nn(C)cc2[N+](=O)[O-])c(C)c1Br` the Potency was inconclusive: 3.98 µM [activator, single point].
In the case of `COC(=O)CCN1CCC(c2cc(-c3cccc(C(F)(F)F)c3)n[nH]2)CC1`, the Potency is reported as inconclusive: 2.82 µM [activator, single point].
In the case of `N#CCCN(Cc1cccnc1)C(=S)NC1CC2C=CC1C2` (centres undefined), the “activation” value is reported as inactive: -8.63%.
In the case of `Cc1ccc(-c2c(C(=O)N/N=C/c3ccc4c(c3)OCO4)nnn2-c2nonc2N)cc1`, the “activation” value is reported as inactive: -16.7%.
In the case of `C=CCn1c(-c2csc3ccccc23)n[nH]c1=S`, the “activation” value is reported as inactive: -5.99%.
With `O=c1cc(-c2ccccc2)[nH][nH]1` the Potency was inconclusive: 0.355 µM [activator, full curve, poor fit].
In the case of `Cc1cc(S(=O)(=O)N2CCN(c3ccc(F)cc3)CC2)ccc1-n1cnnn1`, the Potency is reported as inconclusive: 5.01 µM [activator, single point].
For `Cc1ccc(NC(=O)N2CCCC2C(=O)NCc2ccc3c(c2)OCO3)cc1` (centres undefined), the Potency was inconclusive: 0.891 µM [activator, partial curve, poor fit].
With `Cc1ccc(S(=O)(=O)NCCSc2nnnn2-c2ccc(C(N)=O)cc2)cc1` the “activation” value was inactive: -4.15%.
With `O=C(NCC1CCCO1)C(c1cccs1)N(Cc1cccs1)C(=O)Cn1nnc(-c2cccs2)n1` (centres undefined) the “activation” value was inactive: -21.1%.
With `ON=C(CCc1ccccc1)CCc1ccccc1` the Potency was inconclusive: 0.282 µM [activator, full curve, poor fit].
With `COc1cc(CN2CCC(CO)(CCOc3ccccc3)CC2)cc(OC)c1` the Potency was inconclusive: 5.01 µM [activator, single point].
With `Cc1csc2ncnc(NC3CCN(Cc4ccccc4)CC3)c12` the activation was inconclusive: -50.1% [activator].
For `Cc1[nH]c(=O)[nH]c(=O)c1/C=C/C(=O)O`, the Potency was inconclusive: 5.01 µM [activator, single point].
In the case of `c1cnc2nc3c4ccccc4c4ccccc4c3nc2c1`, the Potency is reported as inconclusive: 1.41 µM [activator, partial curve, poor fit].
For `COc1ccccc1CCNC(=O)CSc1nnc2ccc(-c3cccnc3)nn12`, the Potency was inconclusive: 28.2 µM [activator, single point].
In the case of `O=C(N/N=C/c1ccoc1)c1ccc(Cl)cc1Cl`, the Potency is reported as inconclusive: 3.55 µM [activator, full curve, poor fit].
For `COc1ccccc1C1=NC(c2ccc(F)cc2)N=C1C` (centres undefined), the Potency was inconclusive: 3.55 µM [activator, full curve, poor fit].
With `CN1CCN(C2=C(Cl)C(=O)C(c3cnc(N4CCCCC4)s3)=C(Cl)C2=O)CC1` the “activation” value was inactive: -49.9%.
